The target in test [1] is T1, FLAG-tagged Eos L2 (CKR-3) receptor (human) (UniProt P51677).
T1 sequence: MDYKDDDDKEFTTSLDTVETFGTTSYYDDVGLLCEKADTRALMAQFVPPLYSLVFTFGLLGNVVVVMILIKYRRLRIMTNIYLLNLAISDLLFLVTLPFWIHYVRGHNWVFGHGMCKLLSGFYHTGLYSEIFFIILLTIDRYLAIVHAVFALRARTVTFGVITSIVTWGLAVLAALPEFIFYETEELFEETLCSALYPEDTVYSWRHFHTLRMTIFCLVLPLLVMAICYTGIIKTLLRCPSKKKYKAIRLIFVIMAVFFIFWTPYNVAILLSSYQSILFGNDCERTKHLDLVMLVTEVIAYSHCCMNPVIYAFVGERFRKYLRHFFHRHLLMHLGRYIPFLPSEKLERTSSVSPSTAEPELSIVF
Kind of test: competition with 0.6 nM 125I-eotaxin on E5 cells.

Amino acid sequences for entries named in this document (tags omitted). Residues count along the entry.
UniProt P13501, residues 24-91: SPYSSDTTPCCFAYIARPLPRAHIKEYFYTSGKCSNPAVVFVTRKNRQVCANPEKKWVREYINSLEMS
UniProt P51671, residues 24-97: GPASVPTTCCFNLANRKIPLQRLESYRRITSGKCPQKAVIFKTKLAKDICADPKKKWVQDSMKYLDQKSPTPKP
UniProt P80098, residues 24-99: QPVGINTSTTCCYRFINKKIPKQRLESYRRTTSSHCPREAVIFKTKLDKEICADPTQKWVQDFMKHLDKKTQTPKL

The target of test [2] is T2, receptor encoded by the A31 cDNA clone (human CKR-3 / Eos L2) (human) (UniProt P51677).
T2 sequence: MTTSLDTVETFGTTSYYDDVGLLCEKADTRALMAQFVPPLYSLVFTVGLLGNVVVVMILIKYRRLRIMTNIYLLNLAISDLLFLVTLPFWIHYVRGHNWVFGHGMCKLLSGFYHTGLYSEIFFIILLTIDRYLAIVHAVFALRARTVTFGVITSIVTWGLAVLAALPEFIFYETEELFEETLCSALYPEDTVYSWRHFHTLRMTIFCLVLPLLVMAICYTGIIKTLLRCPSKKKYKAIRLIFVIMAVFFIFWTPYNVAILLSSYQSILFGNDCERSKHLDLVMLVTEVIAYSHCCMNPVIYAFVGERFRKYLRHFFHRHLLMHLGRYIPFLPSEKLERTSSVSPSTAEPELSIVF
Kind of test: 0.125 nM 125I-RANTES on membranes of A31-293-#20 cells, filter binding.

The target in test [3] is T1, FLAG-tagged Eos L2 (CKR-3) receptor (human). Kind of test: 0.1 nM 125I-RANTES on Eos L2 baculovirus-infected SF9 cells.
The target is the same in test [4]. The experiment in a line: 0.6 nM 125I-eotaxin on E5 cells with cold competitor.
Test [5] concerns the target T2, receptor encoded by the A31 cDNA clone (human CKR-3 / Eos L2) (human). Kind of test: 0.125 nM 125I-MCP-3 on membranes of A31-293-#20 cells, displacement.
Test [6] shares this target. The experiment in a line: 125I-MCP-3 on membranes of A31-293-#20 cells.

Results are given in words; binding and its absence hold for the method and conditions named. Some entries that bind do so weakly or less than the wild type. For some of these results: Tags and fused reporters may be left off the sequences shown.

On to “RANTES (from UniProt P13501 24-91) (ligand)”, for which the binding result in test [1], in test [2] and in test [3] was “binds” in each case.
“human eotaxin (from UniProt P51671 24-97) (ligand)”: the binding entry in test [4] is “binds”.
As for “MCP-3 (from UniProt P80098 24-99) (ligand)”, the binding entry in test [5], in test [1] and in test [6] was “binds” in each case.
